Consider 42 sequences from PMC7819943, “Rice protein-binding microarrays: a tool to detect cis-acting elements near promoter regions in rice”.

Some of the results follow.

This assay has as its target T1, OsSMF1 (Oryza sativa, UniProt Q6ZLB0 1-436).
T1 sequence: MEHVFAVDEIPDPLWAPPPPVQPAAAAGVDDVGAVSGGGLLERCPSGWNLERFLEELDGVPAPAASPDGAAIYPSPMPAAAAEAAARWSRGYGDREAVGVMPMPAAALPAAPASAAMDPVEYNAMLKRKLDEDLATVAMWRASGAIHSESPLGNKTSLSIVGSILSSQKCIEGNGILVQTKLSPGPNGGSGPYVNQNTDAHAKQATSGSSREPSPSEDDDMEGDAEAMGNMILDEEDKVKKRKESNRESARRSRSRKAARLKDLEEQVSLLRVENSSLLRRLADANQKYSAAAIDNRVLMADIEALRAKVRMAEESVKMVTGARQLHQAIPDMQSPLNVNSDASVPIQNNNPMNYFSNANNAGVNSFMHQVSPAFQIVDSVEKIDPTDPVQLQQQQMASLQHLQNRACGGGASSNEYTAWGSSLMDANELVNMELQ
The assay can be described thus: protein-binding microarray (RPBM); PBS, 2% BSA, 51.3 ng/ul salmon testes DNA, 50 uM zinc acetate, 200 nM TF, 25 C, 1 h; high values mean tight binding. Conditions: protein: recombinant; tags: N-terminal polyhistidine and DsRed monomer fusion (pET32a); chain copies: 2; label: CyDye5-dUTP incorporated in the synthesized complementary strand; 3' TTTTT single-stranded linker to array surface; dsDNA, one strand shown. A digest of the protocol: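 In PBS with 2% BSA, salmon testes DNA and 50 µM zinc acetate, 200 nM protein was incubated on a custom Agilent array at 25 °C for 1 h and then washed off. The array had been made double-stranded by primer extension with Cy5-dUTP and blocked with 2% BSA. The proteins were transcription factors fused N-terminally to polyhistidine and DsRed, expressed in E. coli BL21-CodonPlus and purified on Ni–NTA. The binding signal is per-feature fluorescence intensity (arbitrary units) from an Axon 4000B scanner.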
For the sequence “ATGACGATTGAGAGAGATGATGTAACTATTTATACTCATTCGGAGTCACCTAGTGCAG”, the binding signal was 3640 fluorescence intensity (a.u.).
The value for “GGAGACGGCGGCGACAGAGGGAGAGGGGAAAGGTGTTTTGCGGAGTCACCTAGTGCAG” was 4920 fluorescence intensity (a.u.).
The value for “TAACCATGTAATTCCTCTGAAAATCCACAGATGAACTAGCCGGAGTCACCTAGTGCAG” was 3360 fluorescence intensity (a.u.); that for “GCTGCAGCAGCAGGTGAGGTCCAACGAGATATGCACATATCGGAGTCACCTAGTGCAG” was 8050 fluorescence intensity (a.u.); that for “CACACTCTGAAACACACGCCGGTCGCCGTCGTCAACGTTGCGGAGTCACCTAGTGCAG” was 4320 fluorescence intensity (a.u.).
As for “TGTGTCTTATTCAAACTTTTAAACATGGGAGGTGTCAGCCCGGAGTCACCTAGTGCAG”, the binding signal is 4950 fluorescence intensity (a.u.).
The value for “GCGGCATATGAGACCGGGAAGGAGACGCTGACCGGCGCACCGGAGTCACCTAGTGCAG” was 33800 fluorescence intensity (a.u.).
The value for “GCATCTCCATGGTCTCCTTGTCGACGCGGATCTCCTCCACCGGAGTCACCTAGTGCAG” was 3180 fluorescence intensity (a.u.).
For “GGCACATGTACGTATGTTTGATGTCACATAAATACGGTAACGGAGTCACCTAGTGCAG” the value was 3470 fluorescence intensity (a.u.); for “ATTAGCACATTGGCCCACACGTAATACTCTCATTTGCTAGCGGAGTCACCTAGTGCAG”, 3580 fluorescence intensity (a.u.).
As to “AATCGGACGCTGACGTCAGCGCCCGATTTTCCCTCACCCACGGAGTCACCTAGTGCAG”, the binding signal is 16600 fluorescence intensity (a.u.).
The value for “CCAGGAGATCACAATCGCCAAGTCAGATCCACCTTGCCTACGGAGTCACCTAGTGCAG” was 4980 fluorescence intensity (a.u.); that for “CTAGTTTTATGATTGAGGGATGTGACTCAATCAAGAGCGACGGAGTCACCTAGTGCAG” was 3490 fluorescence intensity (a.u.).
Regarding “AAGTCTAGTTTTATTGCATGACTTGTGGTCTGACTCCACACGGAGTCACCTAGTGCAG”, the binding signal is 3590 fluorescence intensity (a.u.).
The value for “CCCTCCTCTCCGCGCGCGCCACCTGTCCATCCGCGCGGAGCGGAGTCACCTAGTGCAG” was 4750 fluorescence intensity (a.u.); that for “GGCCGCGGGAGACCGAGAGGCCTACCGTCCGGTGACTCCTCGGAGTCACCTAGTGCAG” was 3310 fluorescence intensity (a.u.).
With “GCGAACCCGCATCCCGTTCGGCCACGTCTCCCAGCTCCCGCGGAGTCACCTAGTGCAG”, the binding signal was 5620 fluorescence intensity (a.u.).
For “AGAACACATATGGCTCTGACATGGATTCATATCCATTGACCGGAGTCACCTAGTGCAG” the value was 3640 fluorescence intensity (a.u.); for “CAGTTGCGTCATCTTGACACACGCACTATTCAGAAGAAAACGGAGTCACCTAGTGCAG”, 7040 fluorescence intensity (a.u.); for “AGCGAGACACTTTGAGATTTAGTATGAGTCATGTAAATTACGGAGTCACCTAGTGCAG”, 7830 fluorescence intensity (a.u.).
For “CCCGCCGTCGCCGGGGAAGACGACACGCCCGCCGTCCTTGCGGAGTCACCTAGTGCAG” the value was 3580 fluorescence intensity (a.u.).
For “GAGTGTTGACTCACCAACTAACTCAACCACGTCTGATGATCGGAGTCACCTAGTGCAG”, the binding signal is 4090 fluorescence intensity (a.u.).
For “CGCAGTGTAAAACGTCGTGGCAACCCCAACCGTCCCAATGCGGAGTCACCTAGTGCAG” the value was 4720 fluorescence intensity (a.u.).
For “AGAGGAGCAACAACTAGTGGGTGCTGGAGGAGTTCGTTGTCGGAGTCACCTAGTGCAG” the value was 16500 fluorescence intensity (a.u.).
For “CTCCACTGCCACTTCACTGATCGAGCTCACCTTTTCCTCTCGGAGTCACCTAGTGCAG” the value was 3820 fluorescence intensity (a.u.); for “TAGCTACGAACCCGGACACATGCGTGTCTAAGTTCATAGCCGGAGTCACCTAGTGCAG”, 4150 fluorescence intensity (a.u.); for “CATTGCAACGGTTCTGCTTGCTGCTGGTTCATCACTGTGCCGGAGTCACCTAGTGCAG”, 32000 fluorescence intensity (a.u.).
With “CTCGCAGCAGCAGCTCCAGCCTCTCGAGCCTCCACGTCACCGGAGTCACCTAGTGCAG”, the binding signal is 23400 fluorescence intensity (a.u.).
Turning to “TTTACGACTGCTAATCGGCCTGAATGAGGCCCATCTATACCGGAGTCACCTAGTGCAG”, the binding signal was 3300 fluorescence intensity (a.u.).
The value for “TTTTCTTTCTTAACTGCGTGACGTGTTCGATTCCTCGCCCCGGAGTCACCTAGTGCAG” was 10800 fluorescence intensity (a.u.); that for “CCACTTTTATCTTGAAATATTACATCAGCAATCTAGAAAACGGAGTCACCTAGTGCAG” was 3740 fluorescence intensity (a.u.).
The value for “GTCTTCACAAATCCGATGACGCCACGTCATCTATCCGGCCCGGAGTCACCTAGTGCAG” was 46400 fluorescence intensity (a.u.).
“TATAAGTTCGGTGTTACGTGTGCAGTGGTGTAGTGGTGCGCGGAGTCACCTAGTGCAG”: the binding signal was 5760 fluorescence intensity (a.u.).
For “CGAGACCATCGGCGGCCACGCTCTTACACGCCATCAACCGCGGAGTCACCTAGTGCAG” the value was 5440 fluorescence intensity (a.u.).
The value for “AACCTAGTGTCAGCTACCTATTTCCCACCATCCTCAGCTACGGAGTCACCTAGTGCAG” was 3320 fluorescence intensity (a.u.); that for “AAGTAGTCCTAGCTAGTGCTGCGTCCAGTTTTGTTTCTTGCGGAGTCACCTAGTGCAG” was 19400 fluorescence intensity (a.u.); that for “GTTGCTCGGATCGGATAAGACAATACAGTTATTTGTGTTACGGAGTCACCTAGTGCAG” was 8900 fluorescence intensity (a.u.).
On to “CGAGGTCGAGGCTGTTGCGTGGCGCCTGGAGGCCTCCGTCCGGAGTCACCTAGTGCAG”, for which the binding signal is 3680 fluorescence intensity (a.u.).
The value for “TACAAGTATAAAACTTTAGATACGTGGGATTAACACGTCACGGAGTCACCTAGTGCAG” was 6470 fluorescence intensity (a.u.); that for “ATCCCCACCGTTGACCGAAGTTGACCTCCAAGAATCCTGACGGAGTCACCTAGTGCAG” was 3620 fluorescence intensity (a.u.); that for “TAAATATACTTGATTTACTGCTGTGTGACCATATATGCTTCGGAGTCACCTAGTGCAG” was 3590 fluorescence intensity (a.u.).
For “CATGTTTGAGATTGCGTCATGATCGGATAATGTTGCGTCACGGAGTCACCTAGTGCAG” the value was 7810 fluorescence intensity (a.u.).
